{
  "source": "PubChem BioAssay AID2685",
  "about": "(National Center for Advancing Translational Sciences (NCATS), 2010)",
  "note": "Out of some 320,000 compounds screened, about 2,100 (0.66%) were called active. The call rests on the fitted dose curve; in most records, active means well fitted inhibition curve with a large enough effect in the signal ratio, with a control signal flat (not every such curve was filed as active); inconclusive means small, poorly fitted or top-dose-only effect, or effect the other way, or a change in a side signal; inactive means flat fitted curve, though single readings scatter; the % refers to the signal ratio. The inconclusive results got no clear call from the source. A potency beside an inconclusive call is a rough fit, not a confirmed value. On the % scale 0 is the no-effect control and ±100 the full control effect; potency means the concentration at half of the fitted maximal effect.",
  "data": [
    {"assay": "qHTS Assay for Lipid Storage Modulators in Drosophila S3 Cells", "conditions": "BODIPY lipid droplet fluorescence, 18-24 h, cells fed with added oleic acid; lipid storage change, negative = inhibition: at 46.1 µM (top of the series) unless noted", "outline": "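Drosophila S3 cells loaded with oleic acid (400 uM, as added) and compounds at several concentrations; lipid droplets imaged by 488-nm laser-scanning cytometry, 500–530 nm intensity and object ratio to cell channel. Percent activity normalized to 20 uM Triacsin C.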", "values": [
      {"compound": "O=C(COc1cccnc1[N+](=O)[O-])Nc1ccc(N2CCOCC2)cc1", "Potency": "inconclusive: 20.6 µM [falling, single point]"},
      {"compound": "O=c1oc(-c2cccs2)nc2sc3c(c12)CCCC3", "Potency": "inconclusive: 0.731 µM [falling, full curve]"},
      {"compound": "CCCCNc1ccc(C(CC(N)=O)NC(=O)Cc2ccc(Br)cc2)cc1[N+](=O)[O-]", "note": "(configuration not stated)", "lipid storage change, negative = inhibition": "inconclusive: 2.01%"},
      {"compound": "Cn1c(CCNC(=O)c2cccs2)nnc1SCC(=O)N1CCN(c2ccccc2)CC1", "lipid storage change, negative = inhibition": "inconclusive: -68.3%"},
      {"compound": "CCC(CC)NCc1ccc(OC)cc1OC", "lipid storage change, negative = inhibition": "inconclusive: -35.2%"},
      {"compound": "CC1(C)C(=O)OC(c2ccccc2)C(C)(C)C1=O", "note": "(configuration not stated)", "Potency": "inconclusive: 0.92 µM [falling, full curve, poor fit]"},
      {"compound": "N#Cc1ccccc1S(=O)(=O)N1CCN(C(=O)c2cc(-c3ccccc3)nn2-c2ccccc2)CC1", "lipid storage change, negative = inhibition": "inconclusive: -21.7%"},
      {"compound": "C=Cn1cc[n+](CC(=O)c2ccc(Cl)c(Cl)c2)c1", "Potency": "inconclusive: 5.8 µM [activator, full curve]"},
      {"compound": "COc1cc(C(=O)Nc2cccc(-n3cnnn3)c2)cc(Cl)c1OC", "Potency": "inconclusive: 9.2 µM [falling, partial curve]"},
      {"compound": "CCC(C)(C(=O)NC1CCCCC1)N(C(=O)C1CCC(=O)N1)c1ccc(C)cc1", "note": "(configuration not stated)", "lipid storage change, negative = inhibition": "inconclusive: -23.8%"},
      {"compound": "Cc1cc(SCC(=O)Nc2cccc(S(=O)(=O)N3CCOCC3)c2)nc2ccccc12", "lipid storage change, negative = inhibition": "inconclusive: 4.45% [at 9.22 µM]"},
      {"compound": "CN(C(=O)COC(=O)c1ccc(S(=O)(=O)N2CCOCC2)cc1)C1CCCCC1", "lipid storage change, negative = inhibition": "inconclusive: 9.4%"},
      {"compound": "COC(=O)c1sc(NC(=O)c2cccc([N+](=O)[O-])c2)c(C(N)=O)c1C", "Potency": "inconclusive: 11.6 µM [activator, partial curve]"},
      {"compound": "CCCCN(CCCC)c1ccc(C(=O)c2ccccc2C(=O)O)c(O)c1", "lipid storage change, negative = inhibition": "inconclusive: -20.3%"},
      {"compound": "CCN1CCN(C(=O)CN(CC)S(=O)(=O)c2ccc3ccccc3c2)CC1", "lipid storage change, negative = inhibition": "inconclusive: 6.39%"},
      {"compound": "CC1CC(C)CN(C(=O)c2ccc3c(c2)N(Cc2ccccc2)CCS3)C1", "note": "(configuration not stated)", "Potency": "inconclusive: 5.8 µM [activator, full curve]"},
      {"compound": "CCCCc1cc2c(c(NC(C)=O)n1)c(=O)oc1ccccc12", "lipid storage change, negative = inhibition": "inconclusive: 33.4%"},
      {"compound": "O=c1ccc(-c2ccccc2)no1", "lipid storage change, negative = inhibition": "inconclusive: 2.91%"},
      {"compound": "COc1ccc(NS(=O)(=O)c2ccc3oc(=O)c4[nH]c(=O)c(=O)n(C)c4c3c2)cc1", "lipid storage change, negative = inhibition": "inconclusive: -79.7%"},
      {"compound": "COc1ccc2cc3cc(C(=O)N4CCN(Cc5ccc6c(c5)OCO6)CC4)oc3nc2c1", "lipid storage change, negative = inhibition": "inconclusive: -6.7%"},
      {"compound": "O=Cc1cn(CCOc2ccccc2F)c2ccccc12", "lipid storage change, negative = inhibition": "inconclusive: -37.3%"},
      {"compound": "NC(=O)C1CCN(c2nc(-c3ccc4ccccc4c3)cs2)CC1", "Potency": "inconclusive: 0.517 µM [activator, full curve]"},
      {"compound": "CC(C)NC(=O)CSc1nnc(-c2ccc(S(=O)(=O)N3CCCC3)cc2)n1CC1CCCO1", "note": "(configuration not stated)", "Potency": "inconclusive: 25.9 µM [falling, single point]"},
      {"compound": "Cc1nc(Nc2ccc(S(=O)(=O)N3CCCCC3C)cc2)c2nnn(Cc3ccccc3)c2n1", "note": "(configuration not stated)", "Potency": "inconclusive: 29.1 µM [falling, single point]"},
      {"compound": "Cc1ccc(SCc2[nH]nc3c2C2(C(=O)Nc4ccc([N+](=O)[O-])cc42)C(C#N)=C(N)O3)cc1", "note": "(configuration not stated)", "lipid storage change, negative = inhibition": "inconclusive: -16.3%"},
      {"compound": "N/C(=N\\OC(=O)COc1ccccc1Cl)c1ccccn1", "lipid storage change, negative = inhibition": "inconclusive: 20.8%"},
      {"compound": "Nc1ccc2nc(COc3ccccc3)[nH]c2c1", "Potency": "inconclusive: 0.0046 µM [activator, full curve, poor fit]"},
      {"compound": "COc1cc(C(=O)NCc2ccc(S(N)(=O)=O)cc2)ccc1OCC(=O)N1CCOCC1", "lipid storage change, negative = inhibition": "inconclusive: 40.5%"},
      {"compound": "CCc1cccc(C)c1NC(=O)c1ccc2nc(N3CCOCC3)sc2c1", "Potency": "inconclusive: 3.66 µM [activator, full curve]"},
      {"compound": "Cc1cc(O)ccc1N/C=C(\\C#N)c1nc2ccccc2o1", "Potency": "inconclusive: 29.1 µM [cytotoxic, single point]"},
      {"compound": "CCCn1c(SCC(=O)Nc2ccc(Cl)cn2)nnc1C1CC1", "Potency": "inconclusive: 0.58 µM [activator, partial curve, poor fit]"},
      {"compound": "O=C(NCc1ccccn1)c1ccc(OC2CCN(Cc3ccc(CO)o3)CC2)cc1", "lipid storage change, negative = inhibition": "inconclusive: -11%"},
      {"compound": "O=C(CN1CCC(n2nnc3cc(F)ccc32)CC1)N1CCCc2ccccc21", "Potency": "inconclusive: 32.6 µM [falling, single point]"},
      {"compound": "CCN(Cc1ccccc1)C(c1cccs1)c1nnnn1C1CCCCC1", "note": "(configuration not stated)", "lipid storage change, negative = inhibition": "inconclusive: 172%"},
      {"compound": "COc1ccc([N+](=O)[O-])cc1NC(=O)c1cc(C)c(C)o1", "lipid storage change, negative = inhibition": "inconclusive: 16.6%"},
      {"compound": "O=C(NCCSCc1ccco1)c1ccc(CN2CCOCC2)cc1", "lipid storage change, negative = inhibition": "inconclusive: -10.2%"},
      {"compound": "C/C(=N\\NC(=O)CSCc1ccccc1Br)c1cccc([N+](=O)[O-])c1", "Potency": "inconclusive: 2.06 µM [activator, full curve, poor fit]"},
      {"compound": "CC(Oc1ccccc1)C(=O)N1CCN(c2ncccn2)CC1", "note": "(configuration not stated)", "Potency": "inconclusive: 3.66 µM [falling, single point]"},
      {"compound": "CCOC(=O)c1c(NC(=O)C(=O)N/N=C/c2ccc(OCC)cc2)sc2c1CCCCC2", "Potency": "inconclusive: 0.231 µM [activator, full curve]"},
      {"compound": "CCN(CC)c1ccc(NC(=O)c2cc(Cl)ccc2OC)cc1", "Potency": "inconclusive: 1.64 µM [activator, partial curve]"},
      {"compound": "C=CCn1c2ccccc2c2nnc(SCc3[nH]c(=O)[nH]c3C(=O)CCCCC(=O)OCC)nc21", "lipid storage change, negative = inhibition": "inconclusive: -76.8%"},
      {"compound": "N#CC(=C1CCCC1)c1nc(-c2ccccc2)cs1", "Potency": "inconclusive: 0.0517 µM [activator, full curve]"},
      {"compound": "O=c1[nH]nc(SCCS(=O)(=O)c2ccc(F)cc2)n1-c1ccc2c(c1)OCCO2", "Potency": "inconclusive: 29.1 µM [cytotoxic, single point]"},
      {"compound": "CNC(=O)Nc1ccccc1C(=O)NCc1ccccc1", "lipid storage change, negative = inhibition": "inconclusive: 18.9%"},
      {"compound": "CCOc1ccc(OCc2ccc(C(=O)OCc3ccccn3)o2)cc1", "Potency": "inconclusive: 0.82 µM [activator, full curve]"},
      {"compound": "COc1ccc(CCC(=O)N2CCN(S(=O)(=O)c3cccs3)CC2)cc1", "lipid storage change, negative = inhibition": "inconclusive: -100%"},
      {"compound": "CCOc1ccc(C(=O)Nc2ccc3c(c2)OCCO3)cc1OC", "Potency": "inconclusive: 1.84 µM [activator, partial curve]"},
      {"compound": "CN(Cc1ccccc1)C(=O)Nc1ccccc1", "Potency": "inconclusive: 4.61 µM [activator, single point]"},
      {"compound": "CCN1C(=NCCc2cccs2)N[C@@H](c2cccs2)C(C(=O)OC)=C1C", "Potency": "inconclusive: 2.91 µM [falling, single point]"},
      {"compound": "CC1CC(C)CN(S(=O)(=O)c2ccc(NC(=O)[C@@H]3CCCN3C(=O)c3cccs3)cc2)C1", "note": "(some centres not stated)", "Potency": "inconclusive: 18.4 µM [activator, single point]"},
      {"compound": "COC(=O)C[n+]1cccc2ccccc21", "Potency": "inconclusive: 0.13 µM [cytotoxic, full curve, poor fit]"},
      {"compound": "O=C(Nc1ccc(OC(F)F)cc1)c1cc[n+]([O-])cc1", "lipid storage change, negative = inhibition": "inconclusive: 54.9%"},
      {"compound": "COC(=O)CCCC(=O)N1CCCC(CCC(=O)NCc2ccc(F)c(F)c2)C1", "note": "(configuration not stated)", "Potency": "inconclusive: 16.4 µM [falling, single point]"},
      {"compound": "CCC(=O)Nc1nc2cc(OC)ccc2s1", "lipid storage change, negative = inhibition": "inconclusive: 34%"},
      {"compound": "COCCOC(=O)C1=C(C)NC2=C(C(=O)CC(c3cccs3)C2)C1c1ccsc1", "note": "(configuration not stated)", "lipid storage change, negative = inhibition": "inconclusive: 29.3%"},
      {"compound": "Cc1ccc(-c2[nH]c(-c3ccccc3)nc2SCC(=O)NCC2CCCO2)cc1", "note": "(configuration not stated)", "lipid storage change, negative = inhibition": "inconclusive: 24.3%"},
      {"compound": "O=C(Nc1nccs1)c1ncc(Cl)c(Cl)c1Cl", "lipid storage change, negative = inhibition": "inconclusive: 38.4%"},
      {"compound": "O=S(=O)(NCCSc1nnc(-c2ccco2)n1-c1ccccc1)c1ccccc1", "lipid storage change, negative = inhibition": "inconclusive: 17.2%"},
      {"compound": "COc1ccc(CNC(=O)C2CCCN(c3nn4c(=O)cc(C)nc4s3)C2)cc1", "note": "(configuration not stated)", "Potency": "inconclusive: 29.1 µM [activator, single point]"},
      {"compound": "O=C(Oc1ccc[nH]c1=O)c1cccc(Cl)c1", "lipid storage change, negative = inhibition": "inconclusive: -23%"},
      {"compound": "O=C(OCC(=O)N1CCCC1)c1ccc(OC(F)(F)F)cc1", "Potency": "inconclusive: 0.116 µM [cytotoxic, full curve, poor fit]"},
      {"compound": "CCOC(=O)C1(C)NC(c2ccccc2F)C2C(=O)N(c3cccc(C(C)=O)c3)C(=O)C21", "note": "(configuration not stated)", "lipid storage change, negative = inhibition": "inconclusive: -40.2%"},
      {"compound": "C#CCNC(=O)C1=C[C@H](c2ccc(C(F)(F)F)cc2)C[C@H](OCCCCO)O1", "lipid storage change, negative = inhibition": "inconclusive: -18.9%"},
      {"compound": "O=C(CSc1nn(-c2ccc(Cl)cc2)c(=S)s1)N1CCN(C(=O)c2ccco2)CC1", "lipid storage change, negative = inhibition": "inconclusive: 30%"},
      {"compound": "Cc1cc(CCN2CCC(=O)NC2=O)ccc1OC(C)C", "Potency": "inconclusive: 0.0046 µM [falling, full curve, poor fit]"},
      {"compound": "C=CCNC(=S)Nc1ccc(Cl)cc1", "lipid storage change, negative = inhibition": "inconclusive: 11%"},
      {"compound": "COc1cc(CC(=O)NCCCc2ccccc2)cc(OC)c1OC", "Potency": "inconclusive: 0.731 µM [activator, full curve]"},
      {"compound": "O=C(CNS(=O)(=O)c1cccc2nsnc12)NC1CCCCC1", "lipid storage change, negative = inhibition": "inconclusive: 49.5%"},
      {"compound": "CC(=O)c1ccc(S(=O)(=O)NC2CC(=O)N(c3ccc(Cl)cc3)C2)cc1", "note": "(configuration not stated)", "lipid storage change, negative = inhibition": "inconclusive: 42.3%"},
      {"compound": "Cc1nc(C)c(-c2ccc(SCc3ccc(Cl)cc3)nn2)s1", "lipid storage change, negative = inhibition": "inconclusive: -6.91%"},
      {"compound": "CC(=O)Nc1sc(NC(=O)c2ccccc2)nc1-c1cccs1", "lipid storage change, negative = inhibition": "inconclusive: -2.72%"},
      {"compound": "COc1ccc(CNC(=O)c2cc3c(=O)n4ccccc4nc3n(Cc3cccnc3)c2=N)cc1", "Potency": "inconclusive: 0.13 µM [activator, full curve, poor fit]"}
    ]}
  ]
}
